The source of these data is PubChem BioAssay AID493014 (National Center for Advancing Translational Sciences (NCATS), 2011).

Each structure is given as a SMILES string. This is one part of the list. The main result of the screen is listed elsewhere. These columns were measured beside it and carry no call. The list favours compounds with an active or inconclusive main result. The note in brackets gives the kind of curve behind each potency; many fits are weak.

The assay is described as follows: qHTS Assay to Find Inhibitors of Chronic Active B-Cell Receptor Signaling. As to conditions: ABC-DLBCL IkBa-CBG/CBR reporter, luminescence ratio (green luciferase fused to IkBa over red control in TMD8 lymphoma cells), 4 h. The essentials:
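TMD8 human ABC-DLBCL cells with doxycycline-inducible IκBα–green luciferase fusion and unfused red luciferase, in 0.5% FBS medium; compounds up to 46 uM, 4 h at 37C. Green/red luminescence ratio, filter-overlap corrected, fitted to concentration-response curves.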
Background: In qHTS, concentration-response curves come from the screen itself.

The mark [1] stands for this setting: measured here: CBR red luminescence, cell number.
Setting [2] is: measured here: IkBa-CBG green luminescence.

With `COc1ccc(N2CCN(CCCNS(=O)(=O)c3c(C)noc3/C=C/N(C)C)CC2)cc1`, the AC50 (commonly the concentration at which the activity in the assay is half-maximal) under setting [1] was 5.17 µM [rising, partial curve, poor fit]. On the same count and under the same terms, then `CCCn1c(CC)nc([N+](=O)[O-])c1S(=O)(=O)c1ccccc1`, with 31.6 µM [falling, single point]. Same read-out and setting: then `CC(=O)/C=C\c1cn(-c2ncc(C(F)(F)F)cc2Cl)c2ccccc12`, with 18.4 µM [falling, single point]. On the same count and under the same terms, then `Cc1cc(NC(=O)CSc2n[nH]c(CC(C)C)n2)no1`, with 25.9 µM [falling, single point]; and `CCOc1cc(-c2nccc3cc(OC)c(OC)cc23)cc(OCC)c1OCC`, with 35.5 µM [falling, single point]. As for `N#CC1=C(N)Oc2cc3ccccc3cc2C1c1cccnc1` (stereo not given), under setting [1], the AC50 is 11.2 µM [falling, partial curve]. `CCOC(=O)C(CCCOc1ccccc1)C(=O)OCC`: the concentration at half-maximal activity (AC50) under setting [1] is 29.1 µM [rising, single point]. On to `O=C(O)CC1(CC(=O)NCc2cccc(Cl)c2)CCCCC1`, for which the half-maximal activity concentration (AC50) is, setting by setting: under setting [1], 3.55 µM [falling, single point]; under setting [2], 3.55 µM [rising, single point]. Consider `Cc1ccc(C)c(C(=O)O/N=C(\N)c2ccc(Br)cc2)c1`, for which, under setting [1], the AC50 was 29.1 µM [rising, single point].

Consider `COc1ccc2c(c1)OC[C@H]1[C@H]2N2C(=O)c3ccccc3NC(=O)[C@@]2(C)[C@H]1c1ccccc1`, for which the AC50 under setting [1] was 20.6 µM [falling, partial curve, poor fit]. Same read-out and setting: next, `O=C1CCCc2c1nc(-c1ccc([N+](=O)[O-])cc1)n2O`: 5.62 µM [falling, full curve]. For the molecule `COc1ccc(-c2nc(C)c(C(C)=O)n2O)cc1OC`, the half-maximal activity concentration (AC50) under setting [1] was 10 µM [falling, partial curve]. On the same count and under the same terms, then `C[C@@H]1CC[C@H]2C(=O)N3[C@@H](CC[C@@H](C)[C@@H]3c3ccc(Br)cc3)C(=O)N2[C@H]1c1ccc(Br)cc1`, with 16.4 µM [falling, single point]; and `O=c1[nH]n(-c2ccc(Cl)cc2)c2ncccc12`, with 35.5 µM [falling, single point]; and `CN(C)/C=C\C(=C/C(=O)C(F)(F)F)Nc1ccccc1Oc1ccccc1`, with 35.5 µM [falling, single point]. Turning to `Cc1csc(SCC(=O)Nc2ccccc2C)n1`, the AC50 under setting [1] is 6.51 µM [falling, partial curve, poor fit]. Still for that read-out and setting: then `CCN=C1Sc2nc3ccc(OCC)cc3cc2CN1CCOC`, with 0.231 µM [rising, full curve, poor fit].

For `N#Cc1ccc(-c2ccc(C3Nc4ccccc4C(=O)N3O)o2)cc1` (stereo not given), the AC50 under setting [1] was 7.31 µM [falling, partial curve] and the half-maximal activity concentration (AC50) under setting [2] is 11.6 µM [rising, partial curve, poor fit].
